Assay results taken from PubChem BioAssay AID493014 (National Center for Advancing Translational Sciences (NCATS), 2011).
The list shows a part of the results. Further columns of the screen follow, without active or inactive calls. Compounds called inactive in the main read-out are mostly missing here. Words in brackets tell the shape of the fitted curve; partial curves, single points and poor fits give uncertain potencies.

Test: qHTS Assay to Find Inhibitors of Chronic Active B-Cell Receptor Signaling
Details: ABC-DLBCL IkBa-CBG/CBR reporter, luminescence ratio (green luciferase fused to IkBa over red control in TMD8 lymphoma cells), 4 h
Outline: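 Doxycycline induced both beetle luciferases in TMD8 lymphoma cells; IKK-driven degradation limits the IkappaBalpha-fused green signal, while red luminescence normalises for cell number and nonspecific effects. Compounds tested up to 46 uM, 4 hrs.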

[1] = measured here: CBR red luminescence, cell number

CS(=O)(=O)NCCCCNc1ccc(C(F)(F)F)cc1[N+](=O)[O-]
AC50 [1]: 5.62 µM [rising, partial curve, poor fit]

COC(=O)c1ccc2c(c1)N(C)CCS2
AC50 [1]: 29.1 µM [rising, single point]

CCCCCCCCOC(=O)C1=C(C)Nc2nnnn2C1c1cccs1 (stereo unspecified)
AC50 [1]: 29.1 µM [falling, single point]

O=c1cc[nH]c2ccc(OC(F)(F)F)cc12
AC50 [1]: 35.5 µM [rising, single point]

CSc1nnc2ccc(-c3ccccn3)nn12
AC50 [1]: 6.31 µM [falling, full curve, poor fit]

CCOc1ccc2nc(C)cc(Nc3ccc4c(c3)OCCO4)c2c1
AC50 [1]: 12.6 µM [falling, partial curve]

CN1CCN(C(=O)CCN2C(=O)/C(=C\c3ccc(Cl)cc3)SC2=S)CC1
AC50 [1]: 15.8 µM [falling, single point]

Cc1ccn2c(NC3CCCC3)c(-c3ccsc3)nc2c1
AC50 [1]: 6.31 µM [falling, single point]

COc1cc(NC(=O)CSCC(=O)Nc2cccc(C(F)(F)F)c2)c(Cl)cc1Cl
AC50 [1]: 11.2 µM [falling, partial curve, poor fit]

CCc1nnc(N/N=C/c2c(F)cccc2Cl)n1N
AC50 [1]: 31.6 µM [falling, single point]

COc1ccc(CNc2nc3ccccc3n2CCN2CCCCC2)c(OC)c1
AC50 [1]: 25.1 µM [falling, single point]

CN(CCCOc1ccccc1Br)Cc1ccccc1
AC50 [1]: 22.4 µM [rising, partial curve, poor fit]

CCCCN=C1NN=C(c2ccc3c(c2)OCCO3)CS1
AC50 [1]: 35.5 µM [falling, single point]

CCCc1nc2c(C)cc(-c3nc4ccccc4n3C)cc2n1Cc1ccc(-c2ccccc2C(=O)O)cc1
AC50 [1]: 1.26 µM [falling, full curve, poor fit]

CCOc1ccc(NC(=O)CCn2cccc2)cc1
AC50 [1]: 1.12 µM [rising, partial curve, poor fit]

CCN(C(=O)COC(=O)c1cncc(Br)c1)C1CCS(=O)(=O)C1 (stereo unspecified)
AC50 [1]: 20 µM [falling, partial curve, poor fit]

CN(C)CCCN(C(=O)c1ccc(S(=O)(=O)N(C)C)cc1)c1nc2cc3c(cc2s1)OCO3
AC50 [1]: 14.1 µM [falling, single point]

C=CCn1c(SCC(=O)c2[nH]c(C)c(C(=O)OC)c2C)nc2scc(-c3ccc(OC)c(OC)c3)c2c1=O
AC50 [1]: 0.411 µM [rising, full curve, poor fit]

COc1ccc(-c2cc(C)nc3c(-c4ccccc4)cnn23)cc1
AC50 [1]: 3.55 µM [rising, partial curve, poor fit]

Cc1ccc(-c2csc(NC(=O)C[n+]3cc(-c4ccc(C)cc4)n4c3CCC4)n2)cc1
AC50 [1]: 20 µM [falling, single point]

CCOC(=O)c1ccc(NC(=S)NCc2cccnc2)cc1
AC50 [1]: 35.5 µM [rising, single point]

NC(=O)c1ccsc1NC(=O)COC(=O)c1ccccc1NCc1ccco1
AC50 [1]: 2.51 µM [falling, full curve, poor fit]

COc1ccc(N2CCn3c2nc2c3c(=O)n(CCCc3ccccc3)c(=O)n2C)c(OC)c1
AC50 [1]: 1 µM [falling, partial curve]

Cc1ccc(Cc2cnc(NC(=O)C3CCCO3)s2)cc1 (stereo unspecified)
AC50 [1]: 3.98 µM [rising, full curve, poor fit]

N=c1cc(C2(O)CCCCC2)n2c(nc3ccccc32)s1
AC50 [1]: 0.231 µM [rising, full curve, poor fit]

Cc1ccn(-c2ccc(NC(=O)c3cccs3)cc2)n1
AC50 [1]: 2 µM [falling, full curve]

CCOc1ccc(N2CC(NS(=O)(=O)c3cccnc3)CC2=O)cc1 (stereo unspecified)
AC50 [1]: 23.1 µM [rising, single point]

Cc1ccc(NC(=O)c2cncc(Br)c2)c(O)c1
AC50 [1]: 12.6 µM [falling, partial curve, poor fit]

Cc1ccc(OCCCCN(C)Cc2ccccc2)c(Br)c1
AC50 [1]: 0.082 µM [rising, full curve, poor fit]

CNCCCCOc1ccccc1Cc1ccccc1
AC50 [1]: 25.1 µM [falling, single point]

c1ccc(-c2cc3c(-n4cccc4)ncnc3o2)cc1
AC50 [1]: 7.08 µM [falling, partial curve]

Cc1ccc(CNC(=O)c2cc(-c3ccc(C)cc3)nc3n[nH]c(-c4ccc(F)cc4)c23)cc1
AC50 [1]: 5.01 µM [rising, single point]

Cc1csc2ncnc(N3CCN(C(=S)Nc4ccc(C(F)(F)F)cc4)CC3)c12
AC50 [1]: 17.8 µM [falling, partial curve, poor fit]

NC(=S)c1cnn2c(-c3cccc(C(F)(F)F)c3)ccnc12
AC50 [1]: 2.82 µM [rising, partial curve, poor fit]

c1ccc2cc(CCO[C@H]3CCCCO3)ncc2c1
AC50 [1]: 2.91 µM [rising, partial curve, poor fit]

NNC(=O)/C(=C\c1ccco1)NC(=O)c1ccco1
AC50 [1]: 7.08 µM [rising, full curve]
AC50 (measured here: IkBa-CBG green luminescence): 3.16 µM [falling, full curve]

CC(=O)Nc1cccc(NC(=O)CSc2nnnn2-c2ccc3c(c2)OCO3)c1
AC50 [1]: 25.1 µM [falling, single point]

COC(=O)c1c(C)oc2ccc(N(C(=O)c3ccncc3)S(=O)(=O)c3ccc4ccccc4c3)cc12
AC50 [1]: 2.91 µM [falling, partial curve, poor fit]

CCn1c2ccccc2c2cc(NC(=O)CNCC3CCCO3)ccc21 (stereo unspecified)
AC50 [1]: 6.31 µM [falling, partial curve, poor fit]

CCCCOC(=O)c1ccc(O)cc1
AC50 [1]: 23.1 µM [rising, single point]

CNC(=O)COC(=O)c1cccc(S(=O)(=O)N2CCN(c3ccc(F)cc3)CC2)c1
AC50 [1]: 20 µM [rising, partial curve, poor fit]

COc1ccc(N(CC(=O)Nc2ccccc2OC)S(=O)(=O)c2ccccc2)cc1Cl
AC50 [1]: 12.6 µM [falling, partial curve, poor fit]

CCOc1ccccc1C(=O)OCC(=O)NCCNC(=O)COC(=O)c1ccccc1OCC
AC50 [1]: 35.5 µM [falling, single point]

Cn1nc(C(=O)NC2CCCC2)c2ccccc2c1=O
AC50 [1]: 20.6 µM [rising, partial curve, poor fit]

CCOc1ccccc1N(CC(=O)NC1CCCC1)C(=O)CNC(=O)c1cccs1
AC50 [1]: 14.1 µM [falling, partial curve]

CC(C)OC(=O)CCc1nc2ccccc2[nH]c1=O
AC50 [1]: 6.51 µM [falling, single point]

CC1CCC(C(C)C)C(OC(=O)Cn2c(-c3ccc(Cl)cc3)[n+](C)c3ccccc32)C1 (stereo unspecified)
AC50 [1]: 35.5 µM [falling, single point]

Cc1ccc(C(=O)OCC(=O)Nc2cc(S(C)(=O)=O)ccc2Cl)cc1S(=O)(=O)N1CCCCC1
AC50 [1]: 35.5 µM [falling, single point]

Cc1ccc(C(C)C)c(OCCN)c1
AC50 [1]: 15.8 µM [falling, partial curve, poor fit]

CC1=C(C(=O)OCc2ccccc2)C(c2cccs2)N2C(=O)CCSC2=N1 (stereo unspecified)
AC50 [1]: 1.12 µM [falling, full curve, poor fit]

CCOC(=O)C1CCN(C(=O)CN(c2ccc(OC)cc2)S(=O)(=O)c2c(C)nn(C)c2C)CC1
AC50 [1]: 0.082 µM [rising, full curve, poor fit]

O=C(NCCOc1ccccc1)c1ccccc1
AC50 [1]: 0.517 µM [rising, partial curve]

CCOC(=O)C(CC)/C(C)=N/NC(=O)c1ccccc1[N+](=O)[O-] (stereo unspecified)
AC50 [1]: 3.55 µM [falling, full curve]

O=C(O)c1ccc(COc2ccccc2Cl)cc1
AC50 [1]: 20 µM [falling, single point]

CC(C)c1ccc(OCC(O)CN2CCN(c3ccccn3)CC2)cc1 (stereo unspecified)
AC50 [1]: 11.2 µM [rising, partial curve]

COC(=O)c1ccc(C(=O)OC)c(NC(=O)COC(=O)C2CC2C)c1 (stereo unspecified)
AC50 [1]: 16.4 µM [falling, single point]

CC(=O)c1ccc(NC(=O)CSc2nnc(NC(=O)Nc3ccccc3)s2)cc1
AC50 [1]: 0.282 µM [rising, full curve, poor fit]

CC(C)OC(=O)c1cccc(C(=O)Nc2cccc(NC(=O)c3cccc(C(=O)OC(C)C)n3)n2)n1
AC50 [1]: 20 µM [rising, partial curve, poor fit]

COC(=O)C1=C(C)NC(C)=C(C(=O)OC)C1C(=O)OCC(=O)N1c2ccccc2CC1C (stereo unspecified)
AC50 [1]: 8.2 µM [rising, partial curve, poor fit]

COc1cc(NC(=O)CCCNC(=O)c2ccc(Cl)cc2)cc(OC)c1
AC50 [1]: 11.2 µM [rising, single point]

CCc1ccccc1Nc1ncnc2c1cnn2-c1ccc(Cl)cc1
AC50 [1]: 4.47 µM [falling, full curve, poor fit]

C=CCc1ccc(OCCCOc2ccc(C)c(C)c2)c(OC)c1
AC50 [1]: 20.6 µM [rising, single point]

OC(CNCCc1ccc(C(F)(F)F)cc1)COc1ccc2ccccc2c1 (stereo unspecified)
AC50 [1]: 23.1 µM [falling, single point]

C/C(CCc1ccco1)=N\NC(=O)CNc1cccc2ccccc12
AC50 [1]: 35.5 µM [falling, single point]

COC(=O)[C@H](CC(C)C)NC(=O)c1cc2c(cn1)[nH]c1ccccc12
AC50 [1]: 25.1 µM [falling, single point]
